In patent publication US20220298255A1 (SEATTLE CHILDREN S HOSPITAL D B A SEATTLE CHILDREN S …, published 2022):
No constants are given. Whether binding was seen depends on the method and setting. Some binding calls cover weakened binding; strength is not graded here.

Protein sequences, listed by entry. Tags and fused reporters are not part of them. Residues count along the entry.
UniProt P12830, residues 155-367: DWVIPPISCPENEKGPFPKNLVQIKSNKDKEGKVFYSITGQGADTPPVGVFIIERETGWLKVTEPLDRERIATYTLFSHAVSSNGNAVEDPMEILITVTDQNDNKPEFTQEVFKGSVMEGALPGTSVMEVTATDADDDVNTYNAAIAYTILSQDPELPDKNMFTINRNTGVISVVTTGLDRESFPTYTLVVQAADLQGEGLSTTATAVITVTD

Biological target: human E-cadherin fragment containing domains EC1-EC2 (human) (UniProt P12830)
Test: X-ray crystal structure of the complex

B1: Fab from activating mAb 66E8 (Fab, V domains shown)
VH: EVQLQQSGPELVKPGASVKISCKASGYSFTGYFMNWVKQSHGKSLEWIGRINPYNGDTFYKQRFKGKATLTVDKSSSTVHMDLLSLTSEDSAVYYCGRGNYYFDYWGQGTTLTVSS
VL: DVQITQSPSYLAASPGETITINCRTSKNISKYLAWYQEKPGKTNKLLIYSGYTLQSGIPSRFSGSGSGTDFTLTISSLEPEDFAMYYCQQHNEYPYTFGGGTKLEIK
**Q.** Which binding does the source give for B1 here?
**A.** binds
